Reference: patent US9481659B2, “Selective heterocyclic sphingosine 1 phosphate receptor modulators” (Celgene International II SÀRL, priority 2011, dated 2016)

Chains of the proteins cited; added tags and fusions are not shown.
UniProt P21453, whole entry: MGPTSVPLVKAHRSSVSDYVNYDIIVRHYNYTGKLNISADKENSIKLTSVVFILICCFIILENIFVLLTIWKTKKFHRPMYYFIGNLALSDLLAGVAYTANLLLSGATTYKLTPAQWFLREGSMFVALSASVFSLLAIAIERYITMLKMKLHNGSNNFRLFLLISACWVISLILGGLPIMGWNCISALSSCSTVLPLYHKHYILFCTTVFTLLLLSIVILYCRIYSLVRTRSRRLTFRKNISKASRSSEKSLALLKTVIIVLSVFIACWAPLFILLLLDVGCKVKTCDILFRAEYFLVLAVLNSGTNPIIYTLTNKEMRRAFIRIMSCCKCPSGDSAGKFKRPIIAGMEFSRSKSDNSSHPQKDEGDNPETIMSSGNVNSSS

Biological target: S1P1/EDG1 (Homo sapiens, UniProt P21453)
Test: S1P1 CRE-bla CHOK1 reporter assay, inhibition of Forskolin induced cAMP
Conditions: read-out: S1P1 ACTIVITY; agonist activity range; S1P1 CRE-bla CHOK1 cells, 2 μM Forskolin; tested form: HCl

CC(C)Oc1ccc(-c2cnc(-c3cccc4c3CC[C@H]4N)s2)cc1C#N
EC50: 0.5 to 5 nM

Structures were worked out from names or drawings and are uncertain.
